Tested on: oxygenated RBCs
Assay: Intraerythrocytic S-nitrosoHb, iron nitrosylHb and metHb after exposure of oxygenated RBCs to NO
Assay type: cell-based
Conditions: 0.3 μM NO, aerated RBCs, n=12

[N]=O [NO, nitric oxide]
yield of intracellular S-nitrosoHb: 103 ± 38 nM
yield of intracellular iron-nitrosylHb: 42 ± 15 nM
yield of intracellular metHb: 0 nM
